Experiment [1] deals with T1, PSKR1-nYFP (full-length phytosulfokine receptor 1 fused to nYFP) (Arabidopsis thaliana) (UniProt Q9ZVR7).
T1 sequence: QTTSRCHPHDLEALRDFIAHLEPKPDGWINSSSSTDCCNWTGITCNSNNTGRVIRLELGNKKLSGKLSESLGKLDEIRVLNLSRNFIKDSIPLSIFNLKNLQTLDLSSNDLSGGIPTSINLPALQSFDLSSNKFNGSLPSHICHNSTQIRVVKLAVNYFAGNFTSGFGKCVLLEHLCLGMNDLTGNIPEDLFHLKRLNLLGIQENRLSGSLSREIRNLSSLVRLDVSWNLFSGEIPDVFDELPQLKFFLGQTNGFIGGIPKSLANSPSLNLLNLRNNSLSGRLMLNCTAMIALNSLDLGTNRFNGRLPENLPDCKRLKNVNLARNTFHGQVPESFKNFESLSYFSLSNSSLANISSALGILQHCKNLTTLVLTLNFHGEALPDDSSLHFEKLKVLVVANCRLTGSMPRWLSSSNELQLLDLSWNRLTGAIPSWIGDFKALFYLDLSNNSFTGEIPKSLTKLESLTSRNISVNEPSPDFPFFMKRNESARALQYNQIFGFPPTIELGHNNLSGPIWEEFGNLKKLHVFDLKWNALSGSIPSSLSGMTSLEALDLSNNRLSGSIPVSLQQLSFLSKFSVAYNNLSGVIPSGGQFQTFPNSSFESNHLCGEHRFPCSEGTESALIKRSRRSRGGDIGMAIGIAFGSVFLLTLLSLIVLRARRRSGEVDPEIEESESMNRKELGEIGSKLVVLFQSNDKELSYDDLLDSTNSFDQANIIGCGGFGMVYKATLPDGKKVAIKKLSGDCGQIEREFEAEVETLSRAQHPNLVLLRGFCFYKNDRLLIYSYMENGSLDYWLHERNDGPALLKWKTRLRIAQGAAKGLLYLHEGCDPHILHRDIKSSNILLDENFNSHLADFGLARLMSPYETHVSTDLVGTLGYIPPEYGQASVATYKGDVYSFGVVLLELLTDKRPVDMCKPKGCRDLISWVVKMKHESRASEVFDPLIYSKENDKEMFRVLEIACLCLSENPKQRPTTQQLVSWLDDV
Kind of experiment: split reporter; BiFC: PSKR1-nYFP and BAK1-cYFP co-transferred into Arabidopsis mesophyll protoplasts, 10-12 h in W5 solution; control or 2 µM WT PSK, PSK Q5K or PSK Q5A for 10 min before confocal detection of YFP; empty nYFP or cYFP plasmids as negative controls.

Experiment [2] addresses T2, PSKR1-nLUC (35S:PSKR1-nLUC) (Arabidopsis thaliana) (UniProt Q9ZVR7).
T2 sequence: T1 sequence
Kind of experiment: split reporter; split luciferase complementation: 35S:cLUC-BAK1 and 35S:PSKR1-nLUC co-infiltrated (Agrobacterium GV3101) into N. benthamiana leaves; after 48 h control or 2 µM WT PSK, PSK Q5K or PSK Q5A for 2 h; luciferase imaging with a CCD camera.

These are yes or no findings as the source states them, for the method shown. In cells and extracts the contact can be indirect. Some entries that bind do so weakly or less than the wild type. Sequences can lack the tags named with a protein.

B1: BAK1-cYFP (full-length Brassinosteroid Insensitive 1 (BRI1)-Associated Kinase I fused to cYFP) (receptor, UniProt Q94F62 26-615)
chain: NAEGDALSALKNSLADPNKVLQSWDATLVTPCTWFHVTCNSDNSVTRVDLGNANLSGQLVMQLGQLPNLQYLELYSNNITGTIPEQLGNLTELVSLDLYLNNLSGPIPSTLGRLKKLRFLRLNNNSLSGEIPRSLTAVLTLQVLDLSNNPLTGDIPVNGSFSLFTPISFANTKLTPLPASPPPPISPTPPSPAGSNRITGAIAGGVAAGAALLFAVPAIALAWWRRKKPQDHFFDVPAEEDPEVHLGQLKRFSLRELQVASDNFSNKNILGRGGFGKVYKGRLADGTLVAVKRLKEERTQGGELQFQTEVEMISMAVHRNLLRLRGFCMTPTERLLVYPYMANGSVASCLRERPESQPPLDWPKRQRIALGSARGLAYLHDHCDPKIIHRDVKAANILLDEEFEAVVGDFGLAKLMDYKDTHVTTAVRGTIGHIAPEYLSTGKSSEKTDVFGYGVMLLELITGQRAFDLARLANDDDVMLLDWVKGLLKEKKLEALVDVDLQGNYKDEEVEQLIQVALLCTQSSPMERPKMSEVVRMLEGDGLAERWEEWQKEEMFRQDFNYPTHHPAVSGWIIGDSTSQIENEYPSGPR
With B1, the binding entry in experiment [1] is recorded as “binds”.

B2: cLUC-BAK1 (35S:cLUC-BAK1) (receptor, UniProt Q94F62 26-615)
chain: B1 chain
Take B2: the binding entry in experiment [2] was “binds”.
